Some of the results follow.
Biological target: T1, OsSMF1 (Oryza sativa, UniProt Q6ZLB0 1-436)
T1 sequence: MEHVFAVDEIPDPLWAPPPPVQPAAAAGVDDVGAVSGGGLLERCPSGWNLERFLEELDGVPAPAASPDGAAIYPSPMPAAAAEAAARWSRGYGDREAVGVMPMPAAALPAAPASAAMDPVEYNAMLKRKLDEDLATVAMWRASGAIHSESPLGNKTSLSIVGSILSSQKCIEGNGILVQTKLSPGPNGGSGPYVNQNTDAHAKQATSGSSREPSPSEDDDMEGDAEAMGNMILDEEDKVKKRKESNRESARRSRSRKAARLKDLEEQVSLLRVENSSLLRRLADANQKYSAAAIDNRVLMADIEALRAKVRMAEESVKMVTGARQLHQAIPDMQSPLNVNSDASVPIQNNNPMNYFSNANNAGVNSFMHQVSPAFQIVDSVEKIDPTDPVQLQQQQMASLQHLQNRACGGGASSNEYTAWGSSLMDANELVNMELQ
Assay: protein-binding microarray (RPBM); PBS, 2% BSA, 51.3 ng/ul salmon testes DNA, 50 uM zinc acetate, 200 nM TF, 25 C, 1 h; high values mean tight binding
Conditions: protein: recombinant; tags: N-terminal polyhistidine and DsRed monomer fusion (pET32a); chain copies: 2; label: CyDye5-dUTP incorporated in the synthesized complementary strand; 3' TTTTT single-stranded linker to array surface; dsDNA, one strand shown
Summary of the method: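 Ni–NTA purification followed expression in E. coli BL21-CodonPlus of transcription factors fused N-terminally to a polyhistidine tag and DsRed. At 200 nM in PBS with 2% BSA, salmon testes DNA and 50 µM zinc acetate, the protein was incubated for 1 h at 25 °C with a custom Agilent array that had been primer-extended with Cy5-dUTP and blocked with 2% BSA. After washing, the array was read on an Axon 4000B scanner. The binding signal is per-feature fluorescence intensity in arbitrary units.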

Question: For “CTTGCATTCCTTTTCTTCTCCTGAACTATATAAACACACTCGGAGTCACCTAGTGCAG”, which binding signal is on record?
Answer: The binding signal was 3290 fluorescence intensity (a.u.).

Question: How did the binding signal turn out when “CTGCTCGATCAAAATCCTCCAACAACTCGATCCATTCGCACGGAGTCACCTAGTGCAG” was run?
Answer: Its binding signal is 3250 fluorescence intensity (a.u.).

Question: For “TCCCGGGCAACTTTAAGTTATTGGGCCTCGGCCAACGTGTCGGAGTCACCTAGTGCAG”, which binding signal is on record?
Answer: The binding signal was 3620 fluorescence intensity (a.u.).

Question: “ATGCCATATATTGTACCTCTCTGCCGTATTACATTTACATCGGAGTCACCTAGTGCAG” was tested. Which binding signal did it give?
Answer: The binding signal was 4160 fluorescence intensity (a.u.).

Question: “AAGATCGTCGTCACTCGCGGCGCCACACAAGAAGTTCGTCCGGAGTCACCTAGTGCAG” was tested. Which binding signal did it give?
Answer: Its binding signal is 3470 fluorescence intensity (a.u.).

Question: For “GCGTGGTGGGACCCGGGTTCCCACGGCGTGGCACGTTGGGCGGAGTCACCTAGTGCAG”, which binding signal is on record?
Answer: The binding signal was 3280 fluorescence intensity (a.u.).

Question: “TGTGATGCCCTCGCGTGACACGCACGAGCTGCCGCCTTTGCGGAGTCACCTAGTGCAG” was tested. Which binding signal did it give?
Answer: The binding signal was 4690 fluorescence intensity (a.u.).

Question: “GCCATTGATTGCCCATGCACTGACACGACCACAGATGCCTCGGAGTCACCTAGTGCAG” was tested. Which binding signal did it give?
Answer: Its binding signal is 3270 fluorescence intensity (a.u.).

Question: “TCACTCATTCACTCTCCACGCTTTCACTTCACTCGCCCACCGGAGTCACCTAGTGCAG” was tested. Which binding signal did it give?
Answer: Its binding signal is 3260 fluorescence intensity (a.u.).

Question: Which binding signal does the source give for “CACAGCCCACAGGCCGCTCCTCGCGGTGTCCACGTGGGATCGGAGTCACCTAGTGCAG” here?
Answer: The binding signal was 14400 fluorescence intensity (a.u.).

Question: “CACGAGTGTTCACGTCGACCATAATGGCACCACCACCCCGCGGAGTCACCTAGTGCAG” was tested. Which binding signal did it give?
Answer: The binding signal was 3520 fluorescence intensity (a.u.).

Question: With “CTATTTGGCGCTGAGGTGTCTAAGTTCAGCGCCACACGATCGGAGTCACCTAGTGCAG” as the sequence, how does the binding signal read?
Answer: The binding signal was 3860 fluorescence intensity (a.u.).

Question: How did the binding signal turn out when “GAGAGGGGAAGGGCGCTAGTAAGAAGCGCTAAGGGATGAGCGGAGTCACCTAGTGCAG” was run?
Answer: The binding signal was 3180 fluorescence intensity (a.u.).

Question: Which binding signal does the source give for “CGCTTGGGACCACGCCGTCATCTCCGACGAAATCTACGCCCGGAGTCACCTAGTGCAG” here?
Answer: The binding signal was 3960 fluorescence intensity (a.u.).

Question: For “CAGGGTCCAGTTGACAGTGTTACGTGACGTACGCAAACCTCGGAGTCACCTAGTGCAG”, which binding signal is on record?
Answer: The binding signal was 8350 fluorescence intensity (a.u.).

Question: How did the binding signal turn out when “TTTTGGCTGCGGAATCCACCCGTGAAACCGAGGGCCGCGTCGGAGTCACCTAGTGCAG” was run?
Answer: Its binding signal is 5010 fluorescence intensity (a.u.).

Question: “CCGCCGGTAAAACCGCGCGCTCCATGCCCACGAAGCAACCCGGAGTCACCTAGTGCAG” was tested. Which binding signal did it give?
Answer: The binding signal was 36000 fluorescence intensity (a.u.).

Question: “AGTGATCATACAGCCTTCCTGCTCTCTCTATTCTGTTTGCCGGAGTCACCTAGTGCAG” was tested. Which binding signal did it give?
Answer: The binding signal was 28200 fluorescence intensity (a.u.).

Question: “GATTGTTGGTAGCTAGGTAGCTGTGGCCAAGAAAGTGAGACGGAGTCACCTAGTGCAG” was tested. Which binding signal did it give?
Answer: Its binding signal is 3810 fluorescence intensity (a.u.).

Question: How did the binding signal turn out when “GTAAACTGAGTGTTACGATGATTCCATATCTGTCGTTTCGCGGAGTCACCTAGTGCAG” was run?
Answer: The binding signal was 3300 fluorescence intensity (a.u.).

Question: For “CTAATCATCCATTAAGAGACTAAGCACCACCACTGAATCTCGGAGTCACCTAGTGCAG”, which binding signal is on record?
Answer: Its binding signal is 3310 fluorescence intensity (a.u.).

Question: With “AAGAGGGCGCGGGTGGCGGGGATGGGCGAGGGGAAGGCGGCGGAGTCACCTAGTGCAG” as the sequence, how does the binding signal read?
Answer: The binding signal was 4570 fluorescence intensity (a.u.).

Question: How did the binding signal turn out when “CTGCGTGTGATAAGATCTAAGAGAGAGGGGAGGAAGAGAACGGAGTCACCTAGTGCAG” was run?
Answer: Its binding signal is 6620 fluorescence intensity (a.u.).

Question: How did the binding signal turn out when “CCAAAGGAGTAGAAGATACAGCATGCGAGCAAGCAAGAGCCGGAGTCACCTAGTGCAG” was run?
Answer: The binding signal was 17700 fluorescence intensity (a.u.).

Question: For “TGAGCTACCGTCCACGTTGCGGTCGTCGTCGAGCCCTTCACGGAGTCACCTAGTGCAG”, which binding signal is on record?
Answer: Its binding signal is 3790 fluorescence intensity (a.u.).

Question: For “TCTGGTTGATTGCTTCATTTTACTACGTCACATTTTAGTCCGGAGTCACCTAGTGCAG”, which binding signal is on record?
Answer: The binding signal was 4160 fluorescence intensity (a.u.).

Question: “AGATTCCGACGACAGCAAAGACAGCGACGGGAGGGGAGGGCGGAGTCACCTAGTGCAG” was tested. Which binding signal did it give?
Answer: The binding signal was 3500 fluorescence intensity (a.u.).

Question: Which binding signal does the source give for “TACTTTGGCCAAACATAGATGGAAATTTTATAATTCGTAACGGAGTCACCTAGTGCAG” here?
Answer: Its binding signal is 19900 fluorescence intensity (a.u.).

Question: “CCAGACGAATTCCGAAGCTTCCGGATACTGACGCTCCGAACGGAGTCACCTAGTGCAG” was tested. Which binding signal did it give?
Answer: Its binding signal is 20500 fluorescence intensity (a.u.).

Question: For “ATCTCCATCGCTGGCGACGGCGAGCATCGCATCGCATCGCCGGAGTCACCTAGTGCAG”, which binding signal is on record?
Answer: Its binding signal is 3150 fluorescence intensity (a.u.).

Question: For “GCCGCCGACCGCCACATATCCACACACCTCGACACGACGGCGGAGTCACCTAGTGCAG”, which binding signal is on record?
Answer: Its binding signal is 3200 fluorescence intensity (a.u.).

Question: How did the binding signal turn out when “GCGCCACGTGGGCGACGCCGCCGTCGTGTCCTTCATACAGCGGAGTCACCTAGTGCAG” was run?
Answer: Its binding signal is 14400 fluorescence intensity (a.u.).

Question: “CCTTCTCTCCACTTCCTTCGTGTTCGGCGTCATGTCCGACCGGAGTCACCTAGTGCAG” was tested. Which binding signal did it give?
Answer: Its binding signal is 3730 fluorescence intensity (a.u.).

Question: Which binding signal does the source give for “TAATAATAAATGATGGGGCCCACGTGGACACCACCTATCACGGAGTCACCTAGTGCAG” here?
Answer: The binding signal was 10600 fluorescence intensity (a.u.).

Question: Which binding signal does the source give for “CTATAAACTTAGTTAAACTAAAGCTGCTATTTAACTTTGACGGAGTCACCTAGTGCAG” here?
Answer: Its binding signal is 3280 fluorescence intensity (a.u.).

Question: Which binding signal does the source give for “TGCGCTGCAGGGAGATGTGCACACTGTAGCAGCGTCGTGCCGGAGTCACCTAGTGCAG” here?
Answer: The binding signal was 30400 fluorescence intensity (a.u.).

Question: For “AGTCATTTACTTTAACCTCCACCAGTCACCGGCCCAGCCACGGAGTCACCTAGTGCAG”, which binding signal is on record?
Answer: The binding signal was 3240 fluorescence intensity (a.u.).

Question: How did the binding signal turn out when “GTAATTCGAAACCATGTCATTATAATTTTGCAAAGTTTGACGGAGTCACCTAGTGCAG” was run?
Answer: The binding signal was 4350 fluorescence intensity (a.u.).

Question: Which binding signal does the source give for “GAGAGAATCCGCTGTGTGTCACTGAATTTATTCATATTCTCGGAGTCACCTAGTGCAG” here?
Answer: The binding signal was 3540 fluorescence intensity (a.u.).

Question: Which binding signal does the source give for “TCAATGAATACAAACAGTGACGGAGGCAAAATCCTAGGCGCGGAGTCACCTAGTGCAG” here?
Answer: The binding signal was 3890 fluorescence intensity (a.u.).

Question: Which binding signal does the source give for “GTATATTGGTCTGATTCTGTTGCAGAGGATGCCACCTGGGCGGAGTCACCTAGTGCAG” here?
Answer: Its binding signal is 4800 fluorescence intensity (a.u.).

Question: How did the binding signal turn out when “CACATCTGAGCCGTCCATCTGTCACCCCAGCTAAGCGAACCGGAGTCACCTAGTGCAG” was run?
Answer: Its binding signal is 4020 fluorescence intensity (a.u.).
